Source: paper doi:10.1101/2021.04.23.441074 (bioRxiv, 2021)
Results are given in words; binding and its absence hold for the method and conditions named. Binding seen in cells or lysates may run through a third protein.

By UniProt entry, the sequences of proteins in these tests, tags left out.
UniProt Q9UQ84: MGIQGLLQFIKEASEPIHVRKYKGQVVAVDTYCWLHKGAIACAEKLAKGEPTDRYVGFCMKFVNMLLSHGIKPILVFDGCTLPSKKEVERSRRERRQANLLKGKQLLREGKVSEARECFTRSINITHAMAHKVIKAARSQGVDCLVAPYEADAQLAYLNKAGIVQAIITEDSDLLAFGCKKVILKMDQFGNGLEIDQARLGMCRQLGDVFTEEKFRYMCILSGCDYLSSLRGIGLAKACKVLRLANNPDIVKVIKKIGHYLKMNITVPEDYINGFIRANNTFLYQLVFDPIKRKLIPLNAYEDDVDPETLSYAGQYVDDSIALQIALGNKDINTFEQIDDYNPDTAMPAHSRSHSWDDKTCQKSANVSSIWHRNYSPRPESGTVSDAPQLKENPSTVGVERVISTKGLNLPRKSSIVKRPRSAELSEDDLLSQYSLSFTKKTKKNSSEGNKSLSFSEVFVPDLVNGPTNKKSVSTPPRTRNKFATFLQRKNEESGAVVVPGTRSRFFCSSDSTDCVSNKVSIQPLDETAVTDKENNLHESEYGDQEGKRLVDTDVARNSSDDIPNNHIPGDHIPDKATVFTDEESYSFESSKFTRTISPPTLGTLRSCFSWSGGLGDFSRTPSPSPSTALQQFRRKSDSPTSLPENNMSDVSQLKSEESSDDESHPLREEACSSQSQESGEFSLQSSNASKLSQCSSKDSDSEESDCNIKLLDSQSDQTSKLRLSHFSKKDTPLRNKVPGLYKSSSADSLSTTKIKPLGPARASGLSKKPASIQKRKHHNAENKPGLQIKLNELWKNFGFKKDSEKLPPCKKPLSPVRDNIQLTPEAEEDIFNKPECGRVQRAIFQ

Biological target: T1, SMARCAD1 (endogenous) (human (endogenous in HEK293T)) (UniProt Q9H4L7)
T1 sequence: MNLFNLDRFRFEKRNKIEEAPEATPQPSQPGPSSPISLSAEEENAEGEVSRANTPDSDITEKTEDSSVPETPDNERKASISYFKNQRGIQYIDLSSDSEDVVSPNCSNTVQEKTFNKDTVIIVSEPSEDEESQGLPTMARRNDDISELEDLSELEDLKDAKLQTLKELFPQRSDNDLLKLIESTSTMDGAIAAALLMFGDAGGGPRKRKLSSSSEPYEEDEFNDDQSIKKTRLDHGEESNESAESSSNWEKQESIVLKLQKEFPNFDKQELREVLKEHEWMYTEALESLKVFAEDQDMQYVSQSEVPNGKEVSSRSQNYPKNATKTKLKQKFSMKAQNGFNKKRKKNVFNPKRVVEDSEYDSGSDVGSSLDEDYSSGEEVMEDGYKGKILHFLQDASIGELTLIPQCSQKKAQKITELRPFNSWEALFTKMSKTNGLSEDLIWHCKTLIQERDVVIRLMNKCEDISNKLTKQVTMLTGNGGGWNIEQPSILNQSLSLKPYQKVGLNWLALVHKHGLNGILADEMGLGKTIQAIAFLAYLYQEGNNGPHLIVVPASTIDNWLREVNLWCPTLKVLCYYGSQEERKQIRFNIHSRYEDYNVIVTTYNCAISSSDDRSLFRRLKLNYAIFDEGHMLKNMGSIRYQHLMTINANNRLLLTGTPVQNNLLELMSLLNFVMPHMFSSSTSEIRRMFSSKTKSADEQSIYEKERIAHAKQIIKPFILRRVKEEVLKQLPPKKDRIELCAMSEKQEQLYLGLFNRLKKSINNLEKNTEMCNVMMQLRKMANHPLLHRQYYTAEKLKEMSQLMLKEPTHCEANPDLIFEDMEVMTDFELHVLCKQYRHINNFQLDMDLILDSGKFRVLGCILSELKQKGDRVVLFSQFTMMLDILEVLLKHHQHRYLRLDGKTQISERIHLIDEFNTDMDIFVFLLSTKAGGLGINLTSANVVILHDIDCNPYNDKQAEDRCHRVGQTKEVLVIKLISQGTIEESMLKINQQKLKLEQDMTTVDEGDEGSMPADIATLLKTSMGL
Test: co-IP

binding: no binding
Substance: EXO1 (endogenous) (from UniProt Q9UQ84 1-846)
